The source of these data is PubChem BioAssay AID248 (DTP/NCI, 2004).

The list is a part of this screen's results and no random one: it is rich in T/C values a quarter to a half above the control, in often repeated tests (any T/C) and in doses without a T/C. Other doses and runs of a compound stand elsewhere. T/C: endpoint of the treated group in % of that of the vehicle group. Some entries give survivors of the animals treated and no T/C: the source files T/C as zero there, which appears to mark a toxic dose or a test without result, not a measured value. Some survivor counts are full or nearly so, which does not show that the dose was tolerated: the source hardly ever lists a survival T/C far under the control, and the zero likely stands for such cases as well. Survivors were counted at the toxicity check, usually on the fifth day, unless a day is given; later deaths do not show. Schedules are NCI's codes, read here as Q, the interval in days (D) or hours (H), X, the number of doses. Some entries hold several experiments; the results are listed from low to high. For survival time, the PubChem record calls one and a half times the control and up active, and a quarter to a half above the control has no call in these data; cut-offs in other NCI protocols can differ.

The assay deals with L1210 leukemia ip in BDF1 mice, survival T/C. Nature of the assay: NCI In Vivo Anticancer Drug Screen. Data for tumor model L1210 Leukemia (intraperitoneal) in B6D2F1 (BDF1) mice. The following applies: T/C endpoint: mean survival time, higher T/C = longer survival.
[1] abbreviates: dose: 400.0 mg/kg/injection, schedule: Q04DX003 (ip), vehicle: saline with Tween-80.
The mark [2] stands for this setting: dose: 400.0 mg/kg/injection, schedule: Q01DX009 (ip), vehicle: Klucel (hydroxypropylcellulose) (HPC).
The mark [3] stands for this setting: dose: 100.0 mg/kg/injection, schedule: Q04DX002 (ip), vehicle: saline with Tween-80.
[4] abbreviates: dose: 200.0 mg/kg/injection, schedule: Q04DX002 (ip), vehicle: saline with Tween-80.

Turning to `CCC(C)c1ccc(O)c(CN(CCO)CCO)c1` (configuration not stated), where the note is “dose: 400.0 mg/kg/injection, schedule: Q01DX001 (ip), vehicle: saline”, the survivor count is 0 of 6.
`CC12CCC3C(CCC4=CC(=O)CCC43C)C1CCCN2` (configuration not stated): the survivor count (dose: 300.0 mg/kg/injection, schedule: Q01DX001 (sc), vehicle: steroid suspending solution) was 1 of 6.
Turning to `NC(N)=NCCCOc1ccc([N+](=O)[O-])cc1`, the survivor count runs as follows: (dose: 200.0 mg/kg/injection, schedule: Q04DX003 (ip), vehicle: saline with Tween-80) 6 of 6; under setting [1], 6 of 6.
As for `CCCCCCC(O)C[N+](=O)[O-]` (configuration not stated), the survivor count under setting [1] is 0 of 6.
`O=C1C=CC(=O)N1c1ccc([N+](=O)[O-])cc1[N+](=O)[O-]`: the survivor count runs as follows: (dose: 200.0 mg/kg/injection, schedule: Q01DX009 (ip), vehicle: Klucel (hydroxypropylcellulose) (HPC)) 0 of 6; under setting [2], 0 of 6.
As to `CCCCNC(C)C(=O)c1ccccc1` (configuration not stated), the survivor count by setting is: (dose: 100.0 mg/kg/injection, schedule: Q01DX009 (ip), vehicle: saline) 1 of 6; (dose: 200.0 mg/kg/injection, schedule: Q04DX003 (ip), vehicle: saline) 0 of 6; (dose: 400.0 mg/kg/injection, schedule: Q04DX003 (ip), vehicle: saline) 0 of 6.
In the case of `CCOC(=O)c1ccc(NC(=O)Sc2ccc(C(C)(C)C)cc2C)cc1`, where the note is “dose: 400.0 mg/kg/injection, schedule: Q01DX009 (ip), vehicle: saline with Tween-80”, the survivor count is given as 5 of 6.
Consider `CC(=O)NC1=C(NC(C)C)C(=O)c2ccccc2C1=O`, for which the survivor count is recorded as 3 of 6 (dose: 25.0 mg/kg/injection, schedule: Q04DX003 (ip), vehicle: saline with Tween-80) and 2 of 6 (dose: 50.0 mg/kg/injection, schedule: Q04DX003 (ip), vehicle: saline with Tween-80).
`CN(C)C(=O)c1cc(NC(=O)c2ccc(C(=O)Nc3cc(C(=O)N(C)C)cc(C4=NCCN4)c3)cc2)cc(C2=NCCN2)c1`: the survivor count runs as follows: (dose: 30.0 mg/kg/injection, schedule: Q01DX015 (ip), vehicle: methylcellulose (MC)) 2 of 6 and 3 of 6; (dose: 60.0 mg/kg/injection, schedule: Q01DX015 (ip), vehicle: methylcellulose (MC)) 1 of 6; (dose: 120.0 mg/kg/injection, schedule: Q01DX015 (ip), vehicle: methylcellulose (MC)) 1 of 6.
Turning to `[Cu+2].[NH-]C(CS)C(=O)O.[NH-]C(CS)C(=O)O` (configuration not stated), the survivor count by setting is: (dose: 12.5 mg/kg/injection, schedule: Q04DX002 (ip), vehicle: saline with Tween-80) 3 of 3; under setting [3], 0 of 3; under setting [4], 1 of 3; (dose: 400.0 mg/kg/injection, schedule: Q04DX002 (ip), vehicle: saline with Tween-80) 0 of 3.
Consider `C/C=C/C=C/COC(=O)C(C)(C)C`, for which the T/C (dose: 200.0 mg/kg/injection, schedule: Q04DX002 (ip), vehicle: saline) was 125 % of control.
Regarding `CN(C)C(=O)Oc1c(Cl)cccc1Cl`, under setting [2], the survivor count is recorded as 1 of 6.
Still for that read-out and setting: with `CC(=O)Oc1ccccc1[N+](=O)[O-]` the figure was 0 of 6.
Consider `O=C(/C=C/c1cccc2ccccc12)c1ccccc1[N+](=O)[O-]`, for which the survivor count is listed as 3 of 3 under setting [3] and 3 of 3 under setting [4].
As to `C/C=C/C=C/COC(=O)CCCCCC`, the T/C (dose: 400.0 mg/kg/injection, schedule: Q04DX002 (ip), vehicle: saline) was 133 % of control.
On to `CCOC(=O)CNCc1cccc(Cl)c1`, for which the survivor count (dose: 400.0 mg/kg/injection, schedule: Q01DX009 (ip), vehicle: saline) was 5 of 6.
